The target in experiment [1] is T1, STM1344 coexpressed with StFlhD (Salmonella Typhimurium) (UniProt Q8ZPS6).
T1 sequence: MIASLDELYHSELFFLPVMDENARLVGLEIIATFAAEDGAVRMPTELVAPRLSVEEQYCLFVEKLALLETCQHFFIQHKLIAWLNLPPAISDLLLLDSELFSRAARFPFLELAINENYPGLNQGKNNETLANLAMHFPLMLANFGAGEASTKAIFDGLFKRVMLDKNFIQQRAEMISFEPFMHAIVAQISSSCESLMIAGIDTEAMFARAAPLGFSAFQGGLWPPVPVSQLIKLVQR
Nature of the experiment: pull-down; coexpression of STM1344 and StFlhD in E. coli BL21(DE3), complex purified on a Ni-NTA affinity column.

For experiment [2], the target named is FlhD used in size exclusion chromatography (S. Typhimurium). The experiment can be described thus: SEC; FlhD mixed at the appropriate ratio with STM1344, STM1697, or STM1344 plus STM1697; 10 min at 4°C; Superdex 200; both purified. On the technique in general: In gel filtration, larger molecules generally elute earlier.
The target of experiment [3] is FlhD4C2 complex with a His tag (S. Typhimurium). The experiment can be described thus: pull-down; FlhD4C2 with a His tag on HisLink resin, with STM1344 or mutants without the His tag; 4°C, 2 h; washed five times with 50 mM NaH2PO4, 300 mM NaCl, 20 mM imidazole pH 8.0; eluted with 250 mM imidazole; SDS-PAGE; both purified.
Experiment [4] has the same target. The experiment can be described thus: native gel or EMSA; FlhD4C2 and 49-bp flhB promoter DNA preincubated 10 min with different ratios of STM1344; native 5% polyacrylamide gel; ethidium bromide and Coomassie staining; both purified.

These are yes or no findings as the source states them, for the method shown. Binding calls can cover weak binding; strength is not graded here. For some of these results: Binding seen in cells or lysates may run through a third protein.

As for S. Typhimurium FlhD without His tag, in experiment [1], the binding entry is “binds”.

B1: STM1344 (protein, UniProt Q8ZPS6 1-237)
chain: T1 sequence
As for B1, the binding result in experiment [2], in experiment [3] and in experiment [4] was “binds” each time.

These data come from publication PMC10100727.
